This is one part of the list.
compound: COC(=O)[C@H](CCSC)NC(=O)C1=C(C=C(C=C1)NC[C@H](CS)N)C2=CC=CC=C2; assay: log2 fold change, soluble protein after heating vs DMSO (PISA); higher = thermal stabilisation; K562 cells, 10 uM, 30 min; active = over 0.2 and 3.5 SD of the protein, either way, in both replicates (recomputed)
Procedure, shortened: (§1)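 Aliquots of K562 cells (2×10^6 cells/mL) treated with 10 μM compound for 30 min were heated for 3 min over 48°C-58°C. After pooling and extraction in PBS with 0.5% NP-40 at 4°C, soluble protein from a 21,000xg, 90 min spin was quantified by TMTpro 16plex LC-MS/MS with channel sums equalised. Thermal stability is expressed against control samples, from duplicates, as a log2 fold change.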

Amino acid sequences for entries named in this document (tags omitted). A change or cut given only in a name is not applied to a line headed by its entry.
UniProt Q13296: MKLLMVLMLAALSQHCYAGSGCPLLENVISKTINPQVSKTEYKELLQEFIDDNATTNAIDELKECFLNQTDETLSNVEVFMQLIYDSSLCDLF
UniProt O14828: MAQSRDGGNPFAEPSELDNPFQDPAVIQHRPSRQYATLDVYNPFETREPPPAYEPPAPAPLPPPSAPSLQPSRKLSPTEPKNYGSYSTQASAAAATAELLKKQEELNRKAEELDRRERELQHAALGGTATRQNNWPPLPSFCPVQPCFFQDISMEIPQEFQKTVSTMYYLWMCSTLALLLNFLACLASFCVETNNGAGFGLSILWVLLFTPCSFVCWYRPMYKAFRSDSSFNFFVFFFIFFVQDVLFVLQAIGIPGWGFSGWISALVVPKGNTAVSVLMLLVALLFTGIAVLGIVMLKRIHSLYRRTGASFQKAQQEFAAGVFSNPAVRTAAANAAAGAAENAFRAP
UniProt Q92622: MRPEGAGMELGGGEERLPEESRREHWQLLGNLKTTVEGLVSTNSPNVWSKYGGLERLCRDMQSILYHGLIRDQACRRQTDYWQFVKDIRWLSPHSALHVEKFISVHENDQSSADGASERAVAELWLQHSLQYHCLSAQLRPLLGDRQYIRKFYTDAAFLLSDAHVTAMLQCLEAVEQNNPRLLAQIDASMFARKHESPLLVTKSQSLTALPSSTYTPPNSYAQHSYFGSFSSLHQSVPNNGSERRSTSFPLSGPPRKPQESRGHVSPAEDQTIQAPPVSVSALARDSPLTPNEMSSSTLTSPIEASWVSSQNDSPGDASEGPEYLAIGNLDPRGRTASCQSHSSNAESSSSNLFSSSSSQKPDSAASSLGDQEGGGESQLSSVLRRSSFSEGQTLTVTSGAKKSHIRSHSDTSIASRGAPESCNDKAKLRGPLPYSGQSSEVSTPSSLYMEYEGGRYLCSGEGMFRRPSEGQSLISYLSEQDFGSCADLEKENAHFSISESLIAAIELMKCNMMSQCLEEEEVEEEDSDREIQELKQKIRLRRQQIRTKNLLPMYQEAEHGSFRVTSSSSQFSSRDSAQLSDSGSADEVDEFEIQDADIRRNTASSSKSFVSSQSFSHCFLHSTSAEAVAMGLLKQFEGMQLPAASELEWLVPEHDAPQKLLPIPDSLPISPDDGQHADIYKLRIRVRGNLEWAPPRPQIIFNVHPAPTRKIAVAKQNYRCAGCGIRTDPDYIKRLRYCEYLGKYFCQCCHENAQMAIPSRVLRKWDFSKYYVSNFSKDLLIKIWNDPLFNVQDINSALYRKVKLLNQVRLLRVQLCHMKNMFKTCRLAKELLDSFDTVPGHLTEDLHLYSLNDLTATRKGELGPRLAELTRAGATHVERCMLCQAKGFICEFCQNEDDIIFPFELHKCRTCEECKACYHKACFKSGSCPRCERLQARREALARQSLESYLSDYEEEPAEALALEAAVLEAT
UniProt Q96FQ6: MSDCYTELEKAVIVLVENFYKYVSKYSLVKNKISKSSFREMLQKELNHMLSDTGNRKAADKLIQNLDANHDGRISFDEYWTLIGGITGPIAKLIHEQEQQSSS
UniProt Q9Y3A4: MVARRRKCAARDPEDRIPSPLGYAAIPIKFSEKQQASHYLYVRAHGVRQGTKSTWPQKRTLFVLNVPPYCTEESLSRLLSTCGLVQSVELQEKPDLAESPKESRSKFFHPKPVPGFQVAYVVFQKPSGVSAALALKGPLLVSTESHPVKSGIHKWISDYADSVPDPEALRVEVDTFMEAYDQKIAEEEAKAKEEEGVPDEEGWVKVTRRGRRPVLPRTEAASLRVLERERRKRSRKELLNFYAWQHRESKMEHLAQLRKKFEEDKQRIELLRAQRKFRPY
UniProt Q8IZE3: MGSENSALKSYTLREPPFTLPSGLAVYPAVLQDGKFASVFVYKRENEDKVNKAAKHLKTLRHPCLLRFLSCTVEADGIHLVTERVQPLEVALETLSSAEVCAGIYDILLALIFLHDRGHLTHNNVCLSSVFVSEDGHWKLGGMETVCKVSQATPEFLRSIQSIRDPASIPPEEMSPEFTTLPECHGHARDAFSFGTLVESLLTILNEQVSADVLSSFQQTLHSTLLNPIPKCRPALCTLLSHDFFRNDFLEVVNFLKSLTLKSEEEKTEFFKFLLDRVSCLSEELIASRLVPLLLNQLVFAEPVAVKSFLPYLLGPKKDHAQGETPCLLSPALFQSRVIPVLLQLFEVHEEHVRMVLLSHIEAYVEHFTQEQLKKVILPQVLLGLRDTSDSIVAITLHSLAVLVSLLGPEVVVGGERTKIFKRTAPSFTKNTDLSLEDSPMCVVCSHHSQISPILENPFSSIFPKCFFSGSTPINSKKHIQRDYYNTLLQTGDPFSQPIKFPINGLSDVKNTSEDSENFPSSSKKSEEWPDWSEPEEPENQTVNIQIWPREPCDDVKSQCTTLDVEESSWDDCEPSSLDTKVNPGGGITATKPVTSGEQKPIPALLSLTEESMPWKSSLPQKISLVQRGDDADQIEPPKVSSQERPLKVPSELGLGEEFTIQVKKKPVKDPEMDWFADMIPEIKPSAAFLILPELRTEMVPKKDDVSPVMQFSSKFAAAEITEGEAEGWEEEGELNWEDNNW
UniProt Q7L3V2: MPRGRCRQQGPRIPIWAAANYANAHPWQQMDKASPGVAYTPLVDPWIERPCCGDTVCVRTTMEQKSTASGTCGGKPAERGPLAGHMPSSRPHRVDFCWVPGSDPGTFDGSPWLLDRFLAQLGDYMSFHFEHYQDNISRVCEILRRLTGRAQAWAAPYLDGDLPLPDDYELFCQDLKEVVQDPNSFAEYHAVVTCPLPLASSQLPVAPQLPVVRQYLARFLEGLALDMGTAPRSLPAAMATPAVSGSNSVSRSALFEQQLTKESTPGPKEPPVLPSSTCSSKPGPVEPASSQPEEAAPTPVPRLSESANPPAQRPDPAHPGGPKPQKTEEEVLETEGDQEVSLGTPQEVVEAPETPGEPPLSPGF
UniProt Q8N9R8: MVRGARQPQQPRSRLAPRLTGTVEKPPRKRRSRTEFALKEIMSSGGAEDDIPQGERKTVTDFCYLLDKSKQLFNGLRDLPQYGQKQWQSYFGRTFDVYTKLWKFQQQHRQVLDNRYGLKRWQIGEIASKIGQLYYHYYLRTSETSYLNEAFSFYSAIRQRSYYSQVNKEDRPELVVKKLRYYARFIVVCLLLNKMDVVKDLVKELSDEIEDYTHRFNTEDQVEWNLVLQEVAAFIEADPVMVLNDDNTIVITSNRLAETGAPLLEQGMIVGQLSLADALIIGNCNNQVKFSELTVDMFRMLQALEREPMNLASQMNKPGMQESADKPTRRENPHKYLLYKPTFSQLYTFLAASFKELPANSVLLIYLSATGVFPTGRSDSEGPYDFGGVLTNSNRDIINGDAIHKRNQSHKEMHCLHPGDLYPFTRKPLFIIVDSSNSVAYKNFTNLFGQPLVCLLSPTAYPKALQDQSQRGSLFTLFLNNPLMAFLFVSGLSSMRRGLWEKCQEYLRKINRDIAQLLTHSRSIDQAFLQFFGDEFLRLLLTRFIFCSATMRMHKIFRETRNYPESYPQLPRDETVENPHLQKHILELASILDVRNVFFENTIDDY
UniProt Q9HCY8: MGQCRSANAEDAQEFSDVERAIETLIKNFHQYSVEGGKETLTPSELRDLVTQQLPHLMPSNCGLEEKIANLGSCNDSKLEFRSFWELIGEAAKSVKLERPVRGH
UniProt Q96BU1: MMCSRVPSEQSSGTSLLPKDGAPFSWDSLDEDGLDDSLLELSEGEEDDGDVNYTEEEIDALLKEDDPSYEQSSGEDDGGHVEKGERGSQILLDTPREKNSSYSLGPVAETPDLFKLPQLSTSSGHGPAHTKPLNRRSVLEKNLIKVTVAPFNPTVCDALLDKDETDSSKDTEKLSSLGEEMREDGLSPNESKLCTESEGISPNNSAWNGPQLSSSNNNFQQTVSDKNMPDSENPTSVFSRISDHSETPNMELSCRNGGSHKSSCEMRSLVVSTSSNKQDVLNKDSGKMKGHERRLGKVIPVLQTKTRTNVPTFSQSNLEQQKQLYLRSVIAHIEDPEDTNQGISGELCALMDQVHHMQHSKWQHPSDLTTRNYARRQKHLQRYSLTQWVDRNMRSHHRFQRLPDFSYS
UniProt Q9H0E3: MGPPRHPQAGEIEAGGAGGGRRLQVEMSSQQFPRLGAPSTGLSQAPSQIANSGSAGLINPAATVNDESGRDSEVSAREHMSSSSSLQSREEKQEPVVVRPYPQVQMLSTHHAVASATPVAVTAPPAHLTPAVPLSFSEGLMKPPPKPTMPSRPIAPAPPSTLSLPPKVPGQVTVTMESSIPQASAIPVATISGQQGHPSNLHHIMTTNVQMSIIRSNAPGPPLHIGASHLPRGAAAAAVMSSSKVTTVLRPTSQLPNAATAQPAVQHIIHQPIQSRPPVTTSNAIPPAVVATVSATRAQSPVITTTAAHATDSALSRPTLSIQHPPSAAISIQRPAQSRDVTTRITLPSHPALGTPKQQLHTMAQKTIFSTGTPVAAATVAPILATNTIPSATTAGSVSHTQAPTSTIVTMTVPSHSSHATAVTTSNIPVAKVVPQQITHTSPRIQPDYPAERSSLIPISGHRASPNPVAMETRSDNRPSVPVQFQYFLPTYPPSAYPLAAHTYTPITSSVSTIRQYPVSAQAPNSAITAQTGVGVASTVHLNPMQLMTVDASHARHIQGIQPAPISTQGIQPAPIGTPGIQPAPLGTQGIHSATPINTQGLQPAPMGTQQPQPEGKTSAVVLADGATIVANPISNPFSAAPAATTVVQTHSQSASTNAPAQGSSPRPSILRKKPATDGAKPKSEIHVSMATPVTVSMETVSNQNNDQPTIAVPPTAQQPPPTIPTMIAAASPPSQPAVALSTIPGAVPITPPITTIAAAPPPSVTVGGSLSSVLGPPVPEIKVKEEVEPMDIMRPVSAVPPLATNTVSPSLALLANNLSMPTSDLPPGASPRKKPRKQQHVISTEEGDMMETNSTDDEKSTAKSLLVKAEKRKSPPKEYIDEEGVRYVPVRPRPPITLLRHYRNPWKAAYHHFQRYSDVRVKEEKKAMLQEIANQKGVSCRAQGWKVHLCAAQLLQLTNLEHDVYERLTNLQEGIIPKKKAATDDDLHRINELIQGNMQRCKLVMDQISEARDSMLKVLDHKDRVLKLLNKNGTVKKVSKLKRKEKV
UniProt Q9UPU9: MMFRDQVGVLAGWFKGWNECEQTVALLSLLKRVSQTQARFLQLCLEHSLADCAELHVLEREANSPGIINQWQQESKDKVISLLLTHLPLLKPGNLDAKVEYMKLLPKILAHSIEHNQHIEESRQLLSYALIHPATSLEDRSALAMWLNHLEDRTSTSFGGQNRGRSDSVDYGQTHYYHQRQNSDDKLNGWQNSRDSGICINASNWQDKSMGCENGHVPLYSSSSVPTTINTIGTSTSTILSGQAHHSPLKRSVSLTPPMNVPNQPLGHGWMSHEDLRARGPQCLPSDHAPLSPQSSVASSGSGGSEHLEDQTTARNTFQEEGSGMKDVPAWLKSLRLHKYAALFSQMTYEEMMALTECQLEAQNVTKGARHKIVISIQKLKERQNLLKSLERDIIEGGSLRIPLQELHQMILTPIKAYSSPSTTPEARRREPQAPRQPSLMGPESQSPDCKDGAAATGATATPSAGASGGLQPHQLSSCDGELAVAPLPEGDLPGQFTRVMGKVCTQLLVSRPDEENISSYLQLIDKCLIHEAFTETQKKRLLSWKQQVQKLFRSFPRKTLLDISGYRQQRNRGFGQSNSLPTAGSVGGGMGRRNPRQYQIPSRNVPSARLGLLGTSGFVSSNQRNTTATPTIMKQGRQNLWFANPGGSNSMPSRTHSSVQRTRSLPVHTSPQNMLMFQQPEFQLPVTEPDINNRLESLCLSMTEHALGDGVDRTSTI
UniProt P26447: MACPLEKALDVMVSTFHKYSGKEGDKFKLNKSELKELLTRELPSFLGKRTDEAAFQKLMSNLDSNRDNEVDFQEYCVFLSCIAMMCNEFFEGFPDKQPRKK
UniProt P23297: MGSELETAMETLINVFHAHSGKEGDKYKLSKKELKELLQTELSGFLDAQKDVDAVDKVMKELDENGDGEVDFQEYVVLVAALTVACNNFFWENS
UniProt Q9NPB0: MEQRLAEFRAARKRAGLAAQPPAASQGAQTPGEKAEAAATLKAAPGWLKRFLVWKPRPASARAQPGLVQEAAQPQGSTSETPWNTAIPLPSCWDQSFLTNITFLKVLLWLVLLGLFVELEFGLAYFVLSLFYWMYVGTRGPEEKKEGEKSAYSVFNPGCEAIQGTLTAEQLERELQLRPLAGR
UniProt Q9Y3V2: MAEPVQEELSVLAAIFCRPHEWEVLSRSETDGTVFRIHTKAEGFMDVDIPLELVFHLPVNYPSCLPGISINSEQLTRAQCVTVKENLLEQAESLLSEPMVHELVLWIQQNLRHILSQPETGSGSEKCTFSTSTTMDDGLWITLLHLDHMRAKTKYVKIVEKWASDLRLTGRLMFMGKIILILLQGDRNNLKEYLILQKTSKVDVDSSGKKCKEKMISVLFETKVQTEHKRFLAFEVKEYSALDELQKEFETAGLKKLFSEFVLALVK
UniProt P60903, whole entry, looked up: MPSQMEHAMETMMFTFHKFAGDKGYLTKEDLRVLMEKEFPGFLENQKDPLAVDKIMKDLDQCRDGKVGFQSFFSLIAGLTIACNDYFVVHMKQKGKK

Target	log2 fold change
SCGB2A2 (UniProt Q13296)	inactive: 0.272
SCAMP3 isoform 2 (UniProt O14828)	inactive: -0.051
SAE1 (UniProt M0R286)	inactive: -0.054
RUBCN (UniProt Q92622)	inactive: 0.207
S100A16 (UniProt Q96FQ6)	inactive: -0.35
RRP7A (UniProt Q9Y3A4)	inactive: 0
RTL8C (UniProt A6ZKI3)	inactive: 0.008
SCYL3 isoform 2 (UniProt Q8IZE3)	inactive: -0.025
SDHB, A0A087WXX8	inactive: 0.205
RTL10 (UniProt Q7L3V2)	inactive: -0.198
SCAI isoform 2 (UniProt Q8N9R8)	inactive: -0.163
S100A14 (UniProt Q9HCY8)	inactive: -0.001
S100PBP (UniProt Q96BU1)	inactive: 0.227
SAP130 isoform 3 (UniProt Q9H0E3)	inactive: -0.052
RSL24D1 (UniProt Q9UHA3)	inactive: -0.054

compound: COC1=CC=C(C=C1)CN2C=CC3=C2C=C(C=C3)C(=O)NO; assay: as above
Procedure, shortened: as §1

Target	log2 fold change
SCGB2A2 (UniProt Q13296)	inactive: 0.471
SDF2 (UniProt Q99470)	inactive: -0.165
SCAMP3 isoform 2 (UniProt O14828)	inactive: 0.027
SAE1 (UniProt M0R286)	inactive: -0.03
S100A16 (UniProt Q96FQ6)	inactive: 0.349
RRP7A (UniProt Q9Y3A4)	inactive: -0.076
SAMD4A (UniProt Q9UPU9)	inactive: -0.132
RTL8C (UniProt A6ZKI3)	inactive: 0.041
SCYL3 isoform 2 (UniProt Q8IZE3)	inactive: 0.017
SCAI isoform 2 (UniProt Q8N9R8)	inactive: -0.078
S100A4 (UniProt P26447)	inactive: 0.077
S100PBP (UniProt Q96BU1)	inactive: -0.127
SAP130 isoform 3 (UniProt Q9H0E3)	inactive: -0.024
SAFB2 (UniProt K7EQU4)	inactive: 0.115
S100A1 (UniProt P23297)	inactive: 0.24

compound: CON(C)C(=O)N1N=C(c2cc(F)ccc2F)S[C@@]1(CCCN)c1ccccc1 [filanesib]; assay: as above
Procedure, shortened: as §1

Target	log2 fold change
SCGB2A2 (UniProt Q13296)	inactive: 0.093
SAE1 (UniProt M0R286)	inactive: 0.034
SAYSD1 (UniProt Q9NPB0)	inactive: -0.011
RRP7A (UniProt Q9Y3A4)	inactive: 0.027
RWDD3 (UniProt Q9Y3V2)	inactive: 0.106
RXRB isoform 3 (UniProt P28702)	inactive: 0.108
S100PBP (UniProt Q96BU1)	inactive: -0.081
SCAF1 (UniProt Q9H7N4)	inactive: 0.009
S100A10 (UniProt P60903)	inactive: -0.143
S100A1 (UniProt P23297)	inactive: -0.024
RSL24D1 (UniProt Q9UHA3)	inactive: 0.259

compound: CO[C@H]1C[C@@H]2CC[C@@H](C)[C@@](O)(O2)C(=O)C(=O)N2CCCC[C@H]2C(=O)O[C@H]([C@H](C)C[C@@H]2CC[C@H](n3cnnn3)[C@H](OC)C2)CC(=O)[C@H](C)/C=C(\C)[C@@H](O)[C@@H](OC)C(=O)[C@H](C)C[C@H](C)/C=C/C=C/C=C/1C [zotarolimus]; assay: as above
Procedure, shortened: as §1

Target	log2 fold change
SAE1 (UniProt M0R286)	inactive: -0.563
SAYSD1 (UniProt Q9NPB0)	inactive: -0.016
RRP7A (UniProt Q9Y3A4)	inactive: 0.13
SCYL3 isoform 2 (UniProt Q8IZE3)	inactive: 0.008
SDHB, A0A087WXX8	inactive: -0.049
RTL10 (UniProt Q7L3V2)	inactive: 0.032
SCAI isoform 2 (UniProt Q8N9R8)	inactive: 0.047
S100PBP (UniProt Q96BU1)	inactive: 0.089
SAP130 isoform 3 (UniProt Q9H0E3)	inactive: 0.201
S100A10 (UniProt P60903)	inactive: -0.045

compound: COc1cc(C(=O)O)ccc1NC(=O)[C@@H]1N[C@@H](CC(C)(C)C)[C@](C#N)(c2ccc(Cl)cc2F)[C@H]1c1cccc(Cl)c1F [idasanutlin]; assay: as above
Procedure, shortened: as §1

Target	log2 fold change
SCGB2A2 (UniProt Q13296)	inactive: 0.005
SBSN (UniProt Q6UWP8)	inactive: 0.008
RRP7A (UniProt Q9Y3A4)	inactive: 0.294
SCYL3 isoform 2 (UniProt Q8IZE3)	inactive: -0.117
SDHB, A0A087WXX8	inactive: 0.076
RTL10 (UniProt Q7L3V2)	inactive: -0.199
SCAI isoform 2 (UniProt Q8N9R8)	inactive: -0.153
S100A4 (UniProt P26447)	inactive: 0.101
S100A14 (UniProt Q9HCY8)	inactive: 0.282
S100PBP (UniProt Q96BU1)	inactive: 0.024
SCN4A (UniProt P35499)	inactive: 0.219
SAP130 isoform 3 (UniProt Q9H0E3)	inactive: 0.179
S100A10 (UniProt P60903)	inactive: 0.165
RSL24D1 (UniProt Q9UHA3)	inactive: 0.106

compound: COc1cc(Nc2ncc3c(n2)-c2ccc(Cl)cc2C(c2c(F)cccc2OC)=NC3)ccc1C(=O)O [alisertib]; assay: as above
Procedure, shortened: as §1

Target	log2 fold change
SCGB2A2 (UniProt Q13296)	inactive: -0.109
SCAMP3 isoform 2 (UniProt O14828)	inactive: -0.16
SBSN (UniProt Q6UWP8)	inactive: 1.15
SAE1 (UniProt M0R286)	inactive: -0.076
SAYSD1 (UniProt Q9NPB0)	inactive: 0.129
S100A16 (UniProt Q96FQ6)	inactive: 1.17
RRP7A (UniProt Q9Y3A4)	inactive: 0.07
SCYL3 isoform 2 (UniProt Q8IZE3)	inactive: 0.063
SDHB, A0A087WXX8	inactive: -0.127
RTL10 (UniProt Q7L3V2)	inactive: 0.95
S100A14 (UniProt Q9HCY8)	inactive: 1.5
S100PBP (UniProt Q96BU1)	inactive: -0.021
SCN4A (UniProt P35499)	inactive: -0.076
SCGB2A1 (UniProt O75556)	inactive: 0.122
RSL24D1 (UniProt Q9UHA3)	inactive: -0.086
